Laboratory results taken from patent US8119683B2, “Aryl substituted sulfonamide compounds and their use as anticancer agents” (Taipei Medical University, priority 2009, dated 2012).
Some of these results come from one statement about several compounds together.

Tested on: Microtubule-associated protein (MAP)-rich tubulin
Assay: Tubulin polymerization inhibition assay (turbidimetric)
Format: biochemical, bovine
Conditions: at a concentration of 2.5 μM

Compound | inhibition of tubulin polymerization [%]
COc1ccc(S(=O)(=O)N2CCc3cccc(-c4ccc(C#N)cc4)c32)cc1 [Compound 17, 4-[1-(4-methoxy-benzenesulfonyl)-2,3-dihydro-1H-indol-7-yl]-benzonitrile] | > 50
COc1ccc(S(=O)(=O)N2CCc3cccc(-c4ccncc4)c32)cc1 [Compound 24, 1-(4-methoxy-benzenesulfonyl)-7-pyridin-4-yl-2,3-dihydro-1H-indole] | > 50
